PubChem BioAssay AID1259405 – NCATS | 2018
Assay: 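Silenced genes that increase secreted GFP made by CHO cells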 (primary screen). Cell system: Chinese hamster CHO-K1 ovary cells with stable secreted eGFP expression. Reagent: single siRNA against mouse genes, 0.8 pmol siRNA per well (2 µl of 400 nM stock). Time to read-out: 3 days. Read-out: 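Percent of the per-plate non-targeting control median for intracellular GFP per well by laser scanning cytometry and for cell viability by ATP luminescence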. Reading the numbers: GFP, % of control: higher = more GFP per well, higher productivity; viability (ATP), % of control: higher = more viable cells (more ATP). Active means: 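a knock-down is called active if GFP reaches 120% or more of non-targeting control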.
The whole screen tested about 50,000 reagents; this is an unselected part. About 4,000 of them (8%) count as active. 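Mouse siRNA library applied to hamster cells; one well for each siRNA.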 Entries without a mark were called inactive. The numbers tell different reagents against one gene apart. No sequences are given here.

gene | reagent | GFP, % of control | viability (ATP), % of control
Stk26 (serine/threonine kinase 26) | 1 | 160 (active) | 110
Stk26 (serine/threonine kinase 26) | 2 | 70.5 | 86.8
Stk26 (serine/threonine kinase 26) | 3 | 77.7 | 90.5
Stk26 (serine/threonine kinase 26) | 4 | 108 | 81.1
Zdhhc2 (zinc finger, DHHC domain containing 2) | 1 | 74.3 | 62.7
Zdhhc2 (zinc finger, DHHC domain containing 2) | 2 | 62.8 | 70.3
Zdhhc2 (zinc finger, DHHC domain containing 2) | 3 | 44.5 | 70
Akr1b1 (aldo-keto reductase family 1 member B) | 1 | 68.5 | 34.9
Akr1b1 (aldo-keto reductase family 1 member B) | 2 | 97.1 | 70.4
Akr1b1 (aldo-keto reductase family 1 member B) | 3 | 77.5 | 50.5
Prps2 (phosphoribosyl pyrophosphate synthetase 2) | 1 | 82.1 | 83.4
Prps2 (phosphoribosyl pyrophosphate synthetase 2) | 2 | 67.3 | 61.6
Prps2 (phosphoribosyl pyrophosphate synthetase 2) | 3 | 87.2 | 84.4
Ccnc (cyclin C) | 1 | 119 | 109
Ccnc (cyclin C) | 2 | 124 (active) | 118
Ccnc (cyclin C) | 3 | 81.9 | 97.6
Ahcy (S-adenosylhomocysteine hydrolase) | 1 | 102 | 76.5
Ahcy (S-adenosylhomocysteine hydrolase) | 2 | 89.2 | 44.3
Ahcy (S-adenosylhomocysteine hydrolase) | 3 | 77.3 | 73
Fem1b (fem 1 homolog b) | 1 | 47.9 | 83.4
Fem1b (fem 1 homolog b) | 2 | 104 | 97.8
Fem1b (fem 1 homolog b) | 3 | 91 | 72.5
L3mbtl2 (L3MBTL2 polycomb repressive complex 1 subunit) | 1 | 90.2 | 59.4
L3mbtl2 (L3MBTL2 polycomb repressive complex 1 subunit) | 2 | 82.7 | 38.3
L3mbtl2 (L3MBTL2 polycomb repressive complex 1 subunit) | 3 | 70.4 | 67.4
Slc38a1 | 1 | 88.6 | 58.1
Slc38a1 | 2 | 51.2 | 62.1
Slc38a1 | 3 | 91.8 | 78.6
Naa16 (N(alpha)-acetyltransferase 16, NatA auxiliary subunit) | 1 | 94.2 | 56.7
Naa16 (N(alpha)-acetyltransferase 16, NatA auxiliary subunit) | 2 | 59.6 | 75.6
Naa16 (N(alpha)-acetyltransferase 16, NatA auxiliary subunit) | 3 | 78 | 51.4
Pstpip2 (proline-serine-threonine phosphatase-interacting protein 2) | 1 | 64.3 | 56.9
Pstpip2 (proline-serine-threonine phosphatase-interacting protein 2) | 2 | 74.1 | 74.5
Sgtb | 1 | 75.8 | 71.3
Sgtb | 2 | 82.6 | 73.8
Sgtb | 3 | 66.8 | 80

Copied from the listing (2 entries):
gene | reagent | GFP, % of control | viability (ATP), % of control
L3mbtl2 (L3MBTL2 polycomb repressive complex 1 subunit) | 3 | 70.4 | 67.4
Slc38a1 | 1 | 88.6 | 58.1
